Laboratory results as given in PMC9118164.
These are yes or no findings as the source states them, for the method shown. In cells and extracts the contact can be indirect. Some entries that bind do so weakly or less than the wild type. Sequences can lack the tags named with a protein. Values belong to the binder of their own block, whether it stands above or below them.

Molecular target: T1, Chl1-Flag (Schizosaccharomyces pombe) (UniProt O14147)
T1 sequence: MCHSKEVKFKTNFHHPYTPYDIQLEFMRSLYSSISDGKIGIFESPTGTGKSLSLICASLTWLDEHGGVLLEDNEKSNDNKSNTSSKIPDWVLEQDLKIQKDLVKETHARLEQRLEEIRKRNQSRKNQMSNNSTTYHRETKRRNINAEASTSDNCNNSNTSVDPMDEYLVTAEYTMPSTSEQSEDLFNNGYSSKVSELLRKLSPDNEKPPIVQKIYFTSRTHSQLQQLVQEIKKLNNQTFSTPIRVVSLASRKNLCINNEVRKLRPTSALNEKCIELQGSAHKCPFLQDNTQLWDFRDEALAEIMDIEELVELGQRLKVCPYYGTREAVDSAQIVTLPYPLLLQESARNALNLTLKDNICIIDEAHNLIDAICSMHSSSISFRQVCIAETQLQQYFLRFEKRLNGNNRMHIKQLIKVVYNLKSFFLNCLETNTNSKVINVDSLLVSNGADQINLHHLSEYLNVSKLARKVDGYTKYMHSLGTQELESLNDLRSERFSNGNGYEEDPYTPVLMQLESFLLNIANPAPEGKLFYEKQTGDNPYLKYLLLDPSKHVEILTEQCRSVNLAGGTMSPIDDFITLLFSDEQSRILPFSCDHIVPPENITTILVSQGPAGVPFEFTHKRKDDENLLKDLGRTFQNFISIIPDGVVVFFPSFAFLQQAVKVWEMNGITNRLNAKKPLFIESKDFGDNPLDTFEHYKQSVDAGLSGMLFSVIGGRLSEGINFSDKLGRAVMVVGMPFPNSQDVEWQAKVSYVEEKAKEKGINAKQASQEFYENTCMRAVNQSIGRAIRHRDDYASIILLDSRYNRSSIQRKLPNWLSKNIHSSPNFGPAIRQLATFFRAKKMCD
Assay: co-IP; lysates of S. pombe strains coexpressing Chl1-Flag and Ssb1-Myc or Ssb2-Myc from native loci; immunoprecipitated with anti-Flag resin, western blot with anti-myc antibody

binding: binds
B1: Ssb1-Myc (protein, UniProt Q92372 1-609)
chain: MAERLSVGALRIINTSDASSFPPNPILQVLTVKELNSNPTSGAPKRYRVVLSDSINYAQSMLSTQLNHLVAENKLQKGAFVQLTQFTVNVMKERKILIVLGLNVLTELGVMDKIGNPAGLETVDALRQQQNEQNNASAPRTGISTSTNSFYGNNAAATAPAPPPMMKKPAAPNSLSTIIYPIEGLSPYQNKWTIRARVTNKSEVKHWHNQRGEGKLFSVNLLDESGEIRATGFNDQVDAFYDILQEGSVYYISRCRVNIAKKQYTNVQNEYELMFERDTEIRKAEDQTAVPVAKFSFVSLQEVGDVAKDAVIDVIGVLQNVGPVQQITSRATSRGFDKRDITIVDQTGYEMRVTLWGKTAIEFSVSEESILAFKGVKVNDFQGRSLSMLTSSTMSVDPDIQESHLLKGWYDGQGRGQEFAKHSVISSTLSTTGRSAERKNIAEVQAEHLGMSETPDYFSLKGTIVYIRKKNVSYPACPAADCNKKVFDQGGSWRCEKCNKEYDAPQYRYIITIAVGDHTGQLWLNVFDDVGKLIMHKTADELNDLQENDENAFMNCMAEACYMPYIFQCRAKQDNFKGEMRVRYTVMSINQMDWKEESKRLINFIESAQ

binding: binds
B2: Ssb2-Myc (protein, UniProt Q92373 1-279)
chain: MAYDAFGKPGYGPDFNSAFSPGMGGGAGFNEYDQSSQPSVDRQQGAGNKLRPVTIKQILNASQVHADAEFKIDGVEVGQVTFVGVLRNIHAQTTNTTYQIEDGTGMIEVRHWEHIDALSELATDTYVRVYGNIKIFSGKIYIASQYIRTIKDHNEVHFHFLEAIAVHLHFTQKANAVNGANAPGYGTSNALGYNNISSNGAANSLEQKLAEYSLTPAQMTVMQAIHSAPETNEGVHVRQLAQSVGPGIDLTAVTDFLQQEGIIYTTIDENHFKSVLQDQ
